Measurements as given in the supplement of paper PMC6411743.
± gives the standard deviation of the averaged measurements. This is a selection; strong and weak results do not stand in their true shares.

Legend:
Assay in all cases: NP40-soluble protein abundance relative to vehicle (solubility fold change) (ratio); higher = more soluble protein in presence of ATP
[1] = biological target: T1, UniProt O15123 and related entries
T1 sequence (whole entry): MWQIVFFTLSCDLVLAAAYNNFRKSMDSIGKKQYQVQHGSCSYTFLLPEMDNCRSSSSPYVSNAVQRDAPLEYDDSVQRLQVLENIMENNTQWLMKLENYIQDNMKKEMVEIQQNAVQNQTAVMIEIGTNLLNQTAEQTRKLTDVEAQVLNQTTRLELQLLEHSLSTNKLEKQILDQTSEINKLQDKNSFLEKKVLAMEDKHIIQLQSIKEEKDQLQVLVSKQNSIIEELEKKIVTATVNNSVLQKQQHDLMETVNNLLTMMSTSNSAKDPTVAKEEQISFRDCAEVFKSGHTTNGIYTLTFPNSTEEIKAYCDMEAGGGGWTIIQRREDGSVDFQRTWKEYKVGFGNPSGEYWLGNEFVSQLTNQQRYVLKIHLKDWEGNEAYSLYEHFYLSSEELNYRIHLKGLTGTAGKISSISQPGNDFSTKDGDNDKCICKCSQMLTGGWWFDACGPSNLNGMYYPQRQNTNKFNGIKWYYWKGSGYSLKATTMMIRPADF
How it was run: (§1)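 Values are fold changes against the detergent-processed vehicle, based on vsn-normalised intensities. Jurkat crude lysate was treated at eight concentrations from 0.1 to 10 mM (10 min at room temperature, then 3 min at 37 °C), solubilised with 0.8% NP40 and benzonase, ultracentrifuged and analysed by TMT-labelled LC-MS/MS over three independent experiments.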

[2] = biological target: T2, UniProt O15173 and related entries
T2 sequence (whole entry): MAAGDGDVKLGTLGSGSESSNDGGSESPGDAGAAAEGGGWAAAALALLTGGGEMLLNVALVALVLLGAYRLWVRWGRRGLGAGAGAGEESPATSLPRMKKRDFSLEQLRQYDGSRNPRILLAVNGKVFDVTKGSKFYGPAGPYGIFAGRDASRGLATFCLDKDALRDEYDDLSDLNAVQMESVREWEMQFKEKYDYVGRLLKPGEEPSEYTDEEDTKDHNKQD
How it was run: as §1

[3] = biological target: T3, UniProt O43310 and related entries
T3 sequence (whole entry): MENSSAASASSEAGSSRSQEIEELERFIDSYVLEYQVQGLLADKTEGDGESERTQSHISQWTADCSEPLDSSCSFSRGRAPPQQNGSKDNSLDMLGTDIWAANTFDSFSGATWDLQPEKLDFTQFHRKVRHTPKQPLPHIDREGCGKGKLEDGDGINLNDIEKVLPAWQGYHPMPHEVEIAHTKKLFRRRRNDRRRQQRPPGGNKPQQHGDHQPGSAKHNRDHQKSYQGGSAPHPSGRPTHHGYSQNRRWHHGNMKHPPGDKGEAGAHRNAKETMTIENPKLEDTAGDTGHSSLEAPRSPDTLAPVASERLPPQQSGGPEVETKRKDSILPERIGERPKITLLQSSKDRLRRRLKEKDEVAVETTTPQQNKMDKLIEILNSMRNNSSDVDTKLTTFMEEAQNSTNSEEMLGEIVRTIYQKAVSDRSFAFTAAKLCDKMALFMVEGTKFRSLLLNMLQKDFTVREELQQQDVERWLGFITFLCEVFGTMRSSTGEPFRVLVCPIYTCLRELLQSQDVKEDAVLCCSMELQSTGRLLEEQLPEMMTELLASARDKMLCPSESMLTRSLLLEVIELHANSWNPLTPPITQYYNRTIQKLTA
How it was run: as §1

UniProt O43318-2|O43318 = biological target: T4, UniProt O43318-2|O43318
T4 sequence (whole entry): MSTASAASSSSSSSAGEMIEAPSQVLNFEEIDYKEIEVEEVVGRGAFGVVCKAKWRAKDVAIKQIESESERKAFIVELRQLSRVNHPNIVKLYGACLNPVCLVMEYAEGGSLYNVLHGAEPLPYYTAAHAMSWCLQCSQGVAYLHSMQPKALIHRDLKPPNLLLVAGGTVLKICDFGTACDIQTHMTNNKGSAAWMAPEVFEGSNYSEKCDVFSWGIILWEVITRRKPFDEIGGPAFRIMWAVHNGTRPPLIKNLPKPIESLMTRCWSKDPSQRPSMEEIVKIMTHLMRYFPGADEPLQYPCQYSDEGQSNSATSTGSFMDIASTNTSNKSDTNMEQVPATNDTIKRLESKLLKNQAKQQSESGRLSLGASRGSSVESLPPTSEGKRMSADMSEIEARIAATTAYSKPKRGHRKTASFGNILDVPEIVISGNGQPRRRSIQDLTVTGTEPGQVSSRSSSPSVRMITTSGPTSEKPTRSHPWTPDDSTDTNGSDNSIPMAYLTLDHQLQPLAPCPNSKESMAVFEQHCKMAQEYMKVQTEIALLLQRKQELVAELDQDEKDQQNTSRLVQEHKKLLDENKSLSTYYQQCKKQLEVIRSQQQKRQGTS
How it was run: as §1

[4] = biological target: T5, UniProt O43586 and related entries
T5 sequence (whole entry): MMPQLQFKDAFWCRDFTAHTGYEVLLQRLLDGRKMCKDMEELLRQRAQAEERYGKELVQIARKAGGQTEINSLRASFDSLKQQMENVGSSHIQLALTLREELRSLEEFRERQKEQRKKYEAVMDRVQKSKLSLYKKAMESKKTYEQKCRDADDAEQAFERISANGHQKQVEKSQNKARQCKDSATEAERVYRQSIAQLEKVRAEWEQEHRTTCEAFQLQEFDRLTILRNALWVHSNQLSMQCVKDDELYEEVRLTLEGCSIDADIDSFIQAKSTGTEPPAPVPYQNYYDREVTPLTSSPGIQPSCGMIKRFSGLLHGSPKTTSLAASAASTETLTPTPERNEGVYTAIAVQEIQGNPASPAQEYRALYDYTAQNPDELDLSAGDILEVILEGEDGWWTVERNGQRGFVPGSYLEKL
How it was run: as §1

ZW10 = biological target: T6, ZW10 (UniProt O43264)
T6 sequence (whole entry): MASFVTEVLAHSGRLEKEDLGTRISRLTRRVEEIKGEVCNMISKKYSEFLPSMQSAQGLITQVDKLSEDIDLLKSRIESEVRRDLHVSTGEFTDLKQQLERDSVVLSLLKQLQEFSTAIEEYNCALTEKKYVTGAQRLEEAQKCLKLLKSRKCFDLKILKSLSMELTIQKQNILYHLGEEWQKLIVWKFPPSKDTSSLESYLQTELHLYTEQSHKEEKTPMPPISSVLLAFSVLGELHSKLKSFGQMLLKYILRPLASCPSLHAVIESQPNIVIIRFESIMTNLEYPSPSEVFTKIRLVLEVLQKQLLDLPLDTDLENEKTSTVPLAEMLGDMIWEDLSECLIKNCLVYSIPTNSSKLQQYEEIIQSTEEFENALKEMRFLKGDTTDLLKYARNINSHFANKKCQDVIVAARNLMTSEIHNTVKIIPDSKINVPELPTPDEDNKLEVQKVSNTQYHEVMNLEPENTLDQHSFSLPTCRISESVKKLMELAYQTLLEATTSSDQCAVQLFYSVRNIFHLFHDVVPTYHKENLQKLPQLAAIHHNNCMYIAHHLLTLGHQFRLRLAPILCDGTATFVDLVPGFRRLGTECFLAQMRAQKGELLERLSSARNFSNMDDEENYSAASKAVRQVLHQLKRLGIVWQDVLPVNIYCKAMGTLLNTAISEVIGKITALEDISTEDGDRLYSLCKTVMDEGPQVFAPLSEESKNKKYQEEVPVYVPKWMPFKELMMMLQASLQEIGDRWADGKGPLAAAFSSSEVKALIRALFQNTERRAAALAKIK
How it was run: as §1

Nc1ncnc2c1ncn2[C@@H]1O[C@H](COP(=O)(O)OP(=O)(O)OP(=O)(O)O)[C@@H](O)[C@H]1O [adenosine triphosphate]
NP40-soluble protein abundance ([1]; concentration: 6mM): 0.90663 ± 0.00026
NP40-soluble protein abundance ([1]; concentration: 8mM): 0.816 ± 0.028
NP40-soluble protein abundance ([1]; concentration: 10mM): 0.774 ± 0.051
NP40-soluble protein abundance ([2]; concentration: 1mM): 0.923 ± 0.023
NP40-soluble protein abundance ([2]; concentration: 2mM): 0.926 ± 0.035
NP40-soluble protein abundance ([2]; concentration: 4mM): 0.928 ± 0.05
NP40-soluble protein abundance ([2]; concentration: 6mM): 0.853 ± 0.04
NP40-soluble protein abundance ([2]; concentration: 8mM): 0.885 ± 0.023
NP40-soluble protein abundance ([2]; concentration: 10mM): 0.835 ± 0.098
NP40-soluble protein abundance ([3]; concentration: 1mM): 0.927 ± 0.098
NP40-soluble protein abundance ([3]; concentration: 2mM): 1.02 ± 0.062
NP40-soluble protein abundance ([3]; concentration: 4mM): 1.02 ± 0.051
NP40-soluble protein abundance ([3]; concentration: 6mM): 0.971 ± 0.017
NP40-soluble protein abundance ([3]; concentration: 8mM): 0.975 ± 0.052
NP40-soluble protein abundance ([3]; concentration: 10mM): 1.01 ± 0.031
NP40-soluble protein abundance (UniProt O43318-2|O43318; concentration: 1mM): 0.955 ± 0.044
NP40-soluble protein abundance (UniProt O43318-2|O43318; concentration: 2mM): 0.965 ± 0.026
NP40-soluble protein abundance (UniProt O43318-2|O43318; concentration: 4mM): 0.946 ± 0.036
NP40-soluble protein abundance (UniProt O43318-2|O43318; concentration: 6mM): 1 ± 0.011
NP40-soluble protein abundance (UniProt O43318-2|O43318; concentration: 8mM): 0.923 ± 0.024
NP40-soluble protein abundance (UniProt O43318-2|O43318; concentration: 10mM): 0.935 ± 0.01
NP40-soluble protein abundance ([4]; concentration: 1mM): 1.01 ± 0.085
NP40-soluble protein abundance ([4]; concentration: 2mM): 1.103 ± 0.0054
NP40-soluble protein abundance ([4]; concentration: 4mM): 1.3 ± 0.31
NP40-soluble protein abundance ([4]; concentration: 6mM): 1.03 ± 0.051
NP40-soluble protein abundance ([4]; concentration: 8mM): 1.11 ± 0.054
NP40-soluble protein abundance ([4]; concentration: 10mM): 1.12 ± 0.092
NP40-soluble protein abundance (ZW10; concentration: 1mM): 1.04 ± 0.026
NP40-soluble protein abundance (ZW10; concentration: 2mM): 1.03 ± 0.012
NP40-soluble protein abundance (ZW10; concentration: 4mM): 1.001 ± 0.0087
NP40-soluble protein abundance (ZW10; concentration: 6mM): 1.01 ± 0.032
NP40-soluble protein abundance (ZW10; concentration: 8mM): 1.02 ± 0.013
NP40-soluble protein abundance (ZW10; concentration: 10mM): 1.01 ± 0.043
